From patent publication US20240368668A1, “SUBSTRATES AND BIOMARKERS OF ADAMTS7” (The Broad Institute, Inc., priority 2021, published 2024)

System: mouse ADAMTS7
Assay: TMT10 TAILS N-terminomics, SMC1 experiment (Ad-mADAMTS7 WT vs EQ vs Luc, technical replicates, trypsin digest)
Type: cell-based
Conditions: TAILS HC Overlap; SMC1; total intensity of the peptide
Excerpt: ADAMTS7 Expression, Cell Culture and Preparation of the Secreted Proteins—Full-length mouse Adamts7 1-1857 (Uniprot Q68SA9, WT or E373Q catalytic mutant) with a carboxyl terminal 3xFLAG tag was used to generate custom adenoviruses as previously described. Adeno-CMV-Luciferase (Ad-Luc) from Vector Biolabs was used as a negative control. Human Coronary Artery Smooth Muscle Cells (HCA-SMC) were obtained from Lonza and expanded in Lonza SmGM-2 media in 15 cm tissue culture plates. Twenty-four hours before media collection, near confluent plates were transduced with 50 MOI adenovirus and switched to Lonza Basal SM media with volumes of 20 ml per 15 cm plate. Expression of the Flag tagged ADAMTS7 was confirmed from the media using western blot and detected using the anti-Flag M2-HRP antibody (Sigma, A8592). Collected media was processed by adding protease inhibitors (1 mM EDTA and 1 mM PMSF) and clarified by 500 g×5 min spin at 4 C to pellet cell debris. Cell media supernatants were then passed through a 0.22 um filter and kept chilled. Processed media was then concentrated 50-100× using 3 kDa Centricon Plus-70 filter unit, spun at 3,500 g×60 min at 4 C. Approximately 10% of the processed, concentrated media was set aside for total secretome proteolytic analysis. The remaining 90% of the processed, concentrated media was buffer exchanged into 50 mM HEPES pH 8.0, 150 mM NaCl (2×50 ml) using the 3 kDa Centricon Plus-70 filter unit and concentrated to >2 mg/ml to serve as input for the TAILS experiment. Secretome and TAILS input samples were stored at −80° C.
For the first experiment, referred to as SMC1, 120 ml of media from 6×15 cm dishes was pooled from each condition (Luc, WT, EQ) and processed to produce three separate inputs for the TAILS experiment. Luc, WT and EQ inputs from the SMC1 experiment were each divided into triplicate 400 ug samples to generate technical replicate TAILS data. For the second experiment, referred to as SMC2, media was processed separately in triplicate for each condition (Luc1, Luc2, Luc3, WT1, WT2, WT3, EQ1, EQ2, EQ3) using 60 ml of media from 3×15 cm dishes for each process replicate. Inputs from the SMC2 experiment used process replicates of 300 ug each to generate TAILS data. The third experiment used input from cultured Human umbilical vein endothelial cells (HUVEC) from Lifeline Cell Technology grown in VascuLife Media and transduced in Lifeline Basal EC (+bFGF2 10 ng/ml). The HUVEC experiment used the same strategy as the SMC2 experiment, with 40 ml of media from 2×15 cm dishes for each process replicate and used 200 ug each to generate TAILS data. Inputs for process replicate experiments were restricted to the lowest concentration from the 9 parallel samples for SMC2 or HUVEC.
TMT10 isotopic labeling and negative selection of non-labeled peptides-Sample preparation was performed based on the TAILS protocol from the Overall lab with some modifications. From a single experiment, nine parallel protein samples in 50 mM HEPES pH 8.0, 150 mM NaCl were separately denatured with guanidinium chloride (Sigma, G4505) to reach a final concentration of 2.5M guanidinium chloride and 250 mM HEPES and incubated at 65° C. for 15 min. Reduction was achieved through addition of tris(2-carboxylethyl) phosphine (TCEP) at a final concentration of […] and incubated at 65° C. for 45 min. Alkylation reaction was performed with addition of iodoacetamide (IAA, Sigma, A3221) to a final concentration of 10 mM IAA for 15 min at room temperature in the dark. Following denaturation, reduction and alkylation steps, ten percent of each of the nine parallel protein samples was removed and combined to serve as a pooled reference. Isobaric tags were added to free amine groups using the TMT10plex Isobaric Mass Tagging Kit (ThermoFisher, 90113) with TMT channels randomly assigned to the nine samples and TMT 131 assigned to the pooled reference. […]

| Substance | SMC1 TAILS.total Intensity |
| --- | --- |
| ADAM9_69 (VIQAEGKEHIIHLER; listed as Homo sapiens) | 2.56E+10 |

Same assay, conditions: TAILS N-terminal peptide identified in SMC conditioned media (scale-up, fractions), mouse ADAMTS7; value listed per TAILS_id (protein_StartAA)

| Substance | TAILS_SMC_Scaleup_fxns_mATS7i |
| --- | --- |
| LTBP2_1023 (GKCTNLEGSFR; listed as Homo sapiens) | 2.82E+08 |
| OS9_55 (SQSSDVVIVSSKYKQR; listed as Homo sapiens) | 3.03E+08 |
| MMP1_24 (LETQEQDVDLVQKYLEKYYNLKNDGR; deamidated asparagine; listed as Homo sapiens) | 7.27E+07 |
| QSOX1_558 (VAAAPELAMGALELESR; listed as Homo sapiens) | 8.63E+08 |
| PAPPA_41 (AAGPATCATR; listed as Homo sapiens) | 5.38E+07 |
| LTBP2_1602 (EAGVHFR; listed as Homo sapiens) | 4.66E+08 |
| MAN2A1_51 (LQEKIDHLER; listed as Homo sapiens) | 7.24E+07 |
| LTBP2_1560 (TTYTECCCQDGEAWSQQCALCPPR; listed as Homo sapiens) | 7.12E+09 |
| POSTN_790 (FIEGGDGHLFEDEEIKR; listed as Homo sapiens) | 1.69E+08 |
| MAP1B_1065 (LTTPTKQLGAQSPGR; listed as Homo sapiens) | 1.61E+07 |
| LTBP2_760 (SSGALPGPAER; listed as Homo sapiens) | 1.84E+09 |
| LOX_81 (NASAQQPR; listed as Homo sapiens) | 3.49E+07 |
| MGAT4B_28 (LSGQKGDVVDVYQR; listed as Homo sapiens) | 3.91E+07 |
| LTBP2_485 (SVQIHQVAQVR; listed as Homo sapiens) | 7.57E+08 |

Same assay, conditions: TAILS N-terminal peptide signal, SMC scale-up fractions, mouse ADAMTS7; label = TAILS_id (gene symbol_StartAA)

| Substance | TAILS_SMC_Scaleup_fxns_mATS7i |
| --- | --- |
| HSPG2_2688 (VADSGEYVCR; listed as Homo sapiens) | 2.03E+07 |
| CDH11_467 (HQEAKVPVAIR; listed as Homo sapiens) | 2.90E+07 |
| ADAM9_69 (VIQAEGKEHIIHLER; listed as Homo sapiens) | 2.56E+10 |
| GALNT2_31 (LAGGAGGGAGR; listed as Homo sapiens) | 2.03E+08 |
| HSPG2_3542 (IAHVELADAGQYR; listed as Homo sapiens) | 1.56E+09 |
| GSN_35 (SQAGAPQGR; listed as Homo sapiens) | 3.49E+07 |
| ECM1_134 (FGDQSHPEPESWNAAQHCQQDR; listed as Homo sapiens) | 4.13E+08 |
| FN1_1731 (FTDVDVDSIKIAWESPQGQVSR; listed as Homo sapiens) | 9.47E+08 |
| COL1A2_681 (VGAPGPAGATGDR; listed as Homo sapiens) | 4.11E+08 |
| EFHD2_67 (QGIGEPQSPSR; listed as Homo sapiens) | 2.69E+07 |

Same assay, conditions: intensity of the N-terminal (TAILS) peptide in SMC scale-up TAILS experiment, fractions; peptide identified by TAILS_id (gene symbol_StartAA)

| Substance | TAILS_SMC_Scaleup_fxns_mATS7i |
| --- | --- |
| SRGN_50 (LEEKGPMFELLPGESNKIPR; listed as Homo sapiens) | 1.42E+09 |
| STC2_244 (HHLPEPSSR; listed as Homo sapiens) | 1.06E+09 |
| SPOCK1_126 (HWVGPSNLVK; listed as Homo sapiens) | 8.43E+07 |
| TGFBI_524 (SAGLTETLNR; listed as Homo sapiens) | 7.48E+07 |
| TGFBI_43 (QHGPNVCAVQKVIGTNR; listed as Homo sapiens) | 3.19E+10 |
| SRGN_51 (EEKGPMFELLPGESNKIPR; listed as Homo sapiens) | 3.45E+07 |
| SERPINH127 (AAAPGTAEKLSPKAATLAER; listed as Homo sapiens) | 1.82E+08 |
| STC2_239 (HGEAGHHLPEPSSR; listed as Homo sapiens) | 9.79E+07 |
| TMEM132A52 (LLDAPEHFR; listed as Homo sapiens) | 1.07E+07 |
| TGFBI_534 (EGVYTVFAPTNEAFR; listed as Homo sapiens) | 6.29E+09 |
